Values quoted from earlier work, collected in US20220096389A1, “PHARMACEUTICAL COMPOSITIONS OF AMORPHOUS SOLID DISPERSIONS AND METHODS OF PREPARATION THEREOF” (Shenzhen Pharmacin Co., Ltd., priority 2020, published 2022).

Details: cited from earlier work

SMILES: CCn1cc(C(=O)O)c(=O)c2cc(F)c(N3CCN(C)CC3)cc21 [Pefloxacin]
- Measured or Calculated pKas (first value) (first value in cell): 6.21 ± 0.12
- Measured or Calculated pKas (second value) (second value in cell): 7.87 ± 0.10
